Experimental findings from US20070208011A1, “Supersaturated Benzodiazepine Solutions and Their Delivery” (priority 2005, published 2007) are described below.

Series [1] can be described thus: Nasal administration of diazepam and midazolam preparations in two healthy volunteers. As to conditions: human, blood, other: intranasal, 5 mg. Here is the method:
Approximately 0.5 ml (2.5 mg) was dripped into each nostril over a period of 30 seconds.

The conditions of series [2]: 40 mg/ml solutions, GF cosolvent composition at 50 vol % or above.
The next series is described as follows: clinical. As to conditions: human, plasma, inhaled or intranasal, 5 mg.
Series [3] is described as follows: Comparison of intranasal with published rectal diazepam concentration-time course. The settings on record: intranasally, 5 mg.

As usually defined, the Tmax is the time at which the peak concentration occurs. In general, Cmax refers to the maximum level reached in the sampled fluid or tissue. `CN1C(=O)CN=C(c2ccccc2)c2cc(Cl)ccc21` [DZP, diazepam]: the Tmax in series [1] is 22.5 min. Moreover, the “temporal stability (time solution remains stable)” value in series [2] was “at least 40 min”. This compound displayed a Cmax in the series “clinical” of 162 ng/mL. This compound came in with a peak concentration in series [3] of 162 ng/mL.
